Experimental data published in the supplement of paper PMC4635364.
Counter-ions that a name gives are not always drawn. This is one part of the list. Single values are uncertain here, since repeats match poorly.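 Human fetal ventral-midbrain neural progenitor line ReNCell VM, differentiated without mitogens. Images stained for doublecortin (early neurons) or tyrosine hydroxylase (dopaminergic neurons) were scored by blinded raters against untreated wells (0 = no change). Repeats and both raters were averaged, and compounds averaging 2 or higher were picked as hits for retesting.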

Test system: ReNCell VM
Test: dopaminergic neuron differentiation score (TH+ cell fraction vs untreated, manual image score) (score (0 to 3)); higher = more TH+ dopaminergic neuron differentiation
Conditions: library: Spectrum; 2 uM; 4 weeks; BDNF 10 ng/ml + GDNF 10 ng/ml

Dopaminergic neuron differentiation score, inactive:
OCC(O)C(O)C(O)C(O)C(O)CO (configuration not stated) 0
O=c1cc(-c2ccc(O)cc2)oc2cc(O)cc(O)c12 0
CC1CC2C3CCC4=CC(=O)C=CC4(C)C3(F)C(O)CC2(C)C1C(=O)CO (configuration not stated) 0
O=C(O)CN(CCN(CC(=O)O)CC(=O)O)CCN(CC(=O)O)CC(=O)O 0
O=C(NCCCN1CCOCC1)c1ccc(Cl)cc1 1
COc1cc(O)cc(OC)c1OC 1
C#C[C@]1(O)CC[C@H]2[C@@H]3CCC4=Cc5oncc5C[C@]4(C)[C@H]3CC[C@@]21C 0
CN/C(=N\CCSCc1nc[nH]c1C)NC#N 0
O=c1oc2c(O)c(O)cc3c(=O)oc4c(O)c(O)cc1c4c23 0
O=C(/C=C/c1ccccc1)c1ccc(O[C@@H]2O[C@H](CO)[C@@H](O)[C@H](O)[C@H]2O)cc1O 0
COc1ccc2c(c1)O[C@H]1c3ccc(OC)cc3OC[C@@H]21 0
Cc1cc(O)cc(O)c1C(=O)O 0
Clc1ccc(CSC(Cn2ccnc2)c2ccc(Cl)cc2Cl)cc1 (configuration not stated) 0
C[C@]12CC[C@@H]3c4ccc(OC(=O)c5ccccc5)cc4CC[C@H]3[C@@H]1CC[C@@H]2O 0
C1CCN2C[C@@H]3C[C@@H](CN4CCCC[C@@H]34)[C@H]2C1 0
CC1=Nc2ccc(Cl)cc2S(=O)(=O)N1 0
CC(=O)Nc1cccc(O)c1 0
CC1=C(C(=O)O)N2C(=O)[C@@H](NC(=O)[C@H](N)c3ccccc3)[C@H]2SC1 0
CCN(CC)Cc1cc(Nc2ccnc3cc(Cl)ccc23)ccc1O 0

Entries from the list above containing an aryl methoxy group, in the order listed:
Dopaminergic neuron differentiation score, inactive:
COc1cc(O)cc(OC)c1OC 1
COc1ccc2c(c1)O[C@H]1c3ccc(OC)cc3OC[C@@H]21 0

Same assay, conditions: library: Tocriscreen; 2 uM; 4 weeks; BDNF 10 ng/ml + GDNF 10 ng/ml

Dopaminergic neuron differentiation score, inactive:
CC1CCN=C(N)S1 (configuration not stated) [AMT hydrochloride] 0
N[C@@H](CSC(c1ccccc1)(c1ccccc1)c1ccccc1)C(=O)O [S-Trityl-L-cysteine] 0
C=CCNC(=O)c1cc([N+](=O)[O-])cc2c(=O)[nH]c(Nc3ccc(Cl)c(Cl)c3)nc12 0
